Results are given in words; binding and its absence hold for the method and conditions named. Binding seen in cells or lysates may run through a third protein. Some results given as binding are weak or reduced against the parent protein; the word gives no strength.
Target: G9a (mouse (endogenous in mESCs)) (UniProt Q9Z148)
Assay: co-IP; 200 μg nuclear extract diluted to approximately 170 mM KCl; IP overnight at 4°C with mouse monoclonal anti-KAP1, anti-G9a or mouse IgG; protein G-Dynabeads; washes in 20 mM HEPES pH 7.9, 200 mM KCl, 1% NP-40, 10% glycerol; Western blot

By UniProt entry, the sequences of proteins in these tests, tags left out.
UniProt Q9Z148: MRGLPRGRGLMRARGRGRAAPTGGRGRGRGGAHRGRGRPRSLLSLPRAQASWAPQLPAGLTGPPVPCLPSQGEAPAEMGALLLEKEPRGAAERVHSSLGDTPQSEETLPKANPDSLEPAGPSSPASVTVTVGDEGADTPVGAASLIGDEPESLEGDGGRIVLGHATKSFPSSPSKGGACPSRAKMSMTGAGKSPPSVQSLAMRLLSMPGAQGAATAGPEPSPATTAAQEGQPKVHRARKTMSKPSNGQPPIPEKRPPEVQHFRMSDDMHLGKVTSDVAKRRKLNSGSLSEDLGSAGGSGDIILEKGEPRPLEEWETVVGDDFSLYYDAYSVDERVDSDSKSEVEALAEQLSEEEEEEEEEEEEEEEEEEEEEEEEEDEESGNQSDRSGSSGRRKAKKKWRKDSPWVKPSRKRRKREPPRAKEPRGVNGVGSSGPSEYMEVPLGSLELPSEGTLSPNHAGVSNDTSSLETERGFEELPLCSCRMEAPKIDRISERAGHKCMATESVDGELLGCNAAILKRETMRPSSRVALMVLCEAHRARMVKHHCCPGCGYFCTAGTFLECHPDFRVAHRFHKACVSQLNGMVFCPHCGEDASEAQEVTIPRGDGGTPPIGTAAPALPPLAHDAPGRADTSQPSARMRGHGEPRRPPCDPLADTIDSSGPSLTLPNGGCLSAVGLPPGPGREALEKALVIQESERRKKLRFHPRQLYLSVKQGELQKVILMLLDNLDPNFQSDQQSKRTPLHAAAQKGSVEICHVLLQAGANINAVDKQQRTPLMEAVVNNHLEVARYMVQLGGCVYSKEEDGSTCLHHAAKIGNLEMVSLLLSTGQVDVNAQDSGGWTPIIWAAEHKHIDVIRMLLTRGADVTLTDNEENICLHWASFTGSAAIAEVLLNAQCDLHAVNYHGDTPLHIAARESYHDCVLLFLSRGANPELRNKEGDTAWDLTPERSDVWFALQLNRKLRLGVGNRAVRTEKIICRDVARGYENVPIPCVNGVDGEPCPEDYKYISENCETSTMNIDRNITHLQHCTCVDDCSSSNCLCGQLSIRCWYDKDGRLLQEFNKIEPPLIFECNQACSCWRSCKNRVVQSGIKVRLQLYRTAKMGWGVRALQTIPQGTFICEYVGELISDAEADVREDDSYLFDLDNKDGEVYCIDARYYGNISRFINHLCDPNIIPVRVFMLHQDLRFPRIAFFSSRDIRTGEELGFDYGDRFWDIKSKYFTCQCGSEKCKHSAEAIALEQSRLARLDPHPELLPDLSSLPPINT
UniProt P83917: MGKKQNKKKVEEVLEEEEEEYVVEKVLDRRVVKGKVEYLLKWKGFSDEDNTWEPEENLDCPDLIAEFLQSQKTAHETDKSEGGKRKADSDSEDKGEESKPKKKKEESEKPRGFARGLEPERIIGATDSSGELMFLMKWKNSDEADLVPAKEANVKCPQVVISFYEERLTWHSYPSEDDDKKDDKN

binding: binds
Substance: HP1β (encoded by Cbx1) (from UniProt P83917 1-185)

Source: publication PMC3682905
